Assay [1] deals with T1, F-box and leucine-rich repeat protein 16 (FBXL16) (human (endogenous in Ishikawa)) (UniProt Q8N461).
T1 sequence: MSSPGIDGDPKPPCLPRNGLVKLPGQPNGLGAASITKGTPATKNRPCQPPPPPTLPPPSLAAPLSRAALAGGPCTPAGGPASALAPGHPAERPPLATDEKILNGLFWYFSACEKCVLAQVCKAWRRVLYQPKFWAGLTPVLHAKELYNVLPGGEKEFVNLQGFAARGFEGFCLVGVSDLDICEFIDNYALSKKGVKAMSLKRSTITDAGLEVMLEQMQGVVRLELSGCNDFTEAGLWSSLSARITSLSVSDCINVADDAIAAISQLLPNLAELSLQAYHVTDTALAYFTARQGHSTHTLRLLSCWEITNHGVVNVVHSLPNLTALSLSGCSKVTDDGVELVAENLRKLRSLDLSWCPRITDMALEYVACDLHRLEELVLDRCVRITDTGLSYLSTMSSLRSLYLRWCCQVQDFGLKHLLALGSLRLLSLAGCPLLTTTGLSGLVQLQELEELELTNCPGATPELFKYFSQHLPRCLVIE
Kind of assay: co-IP; Ishikawa/MPA cells with shRNA-NC or shFBXL16; endogenous proteins; precipitating antibody not stated for this experiment.

By UniProt entry, the sequences of proteins in these tests, tags left out.
UniProt Q969H0: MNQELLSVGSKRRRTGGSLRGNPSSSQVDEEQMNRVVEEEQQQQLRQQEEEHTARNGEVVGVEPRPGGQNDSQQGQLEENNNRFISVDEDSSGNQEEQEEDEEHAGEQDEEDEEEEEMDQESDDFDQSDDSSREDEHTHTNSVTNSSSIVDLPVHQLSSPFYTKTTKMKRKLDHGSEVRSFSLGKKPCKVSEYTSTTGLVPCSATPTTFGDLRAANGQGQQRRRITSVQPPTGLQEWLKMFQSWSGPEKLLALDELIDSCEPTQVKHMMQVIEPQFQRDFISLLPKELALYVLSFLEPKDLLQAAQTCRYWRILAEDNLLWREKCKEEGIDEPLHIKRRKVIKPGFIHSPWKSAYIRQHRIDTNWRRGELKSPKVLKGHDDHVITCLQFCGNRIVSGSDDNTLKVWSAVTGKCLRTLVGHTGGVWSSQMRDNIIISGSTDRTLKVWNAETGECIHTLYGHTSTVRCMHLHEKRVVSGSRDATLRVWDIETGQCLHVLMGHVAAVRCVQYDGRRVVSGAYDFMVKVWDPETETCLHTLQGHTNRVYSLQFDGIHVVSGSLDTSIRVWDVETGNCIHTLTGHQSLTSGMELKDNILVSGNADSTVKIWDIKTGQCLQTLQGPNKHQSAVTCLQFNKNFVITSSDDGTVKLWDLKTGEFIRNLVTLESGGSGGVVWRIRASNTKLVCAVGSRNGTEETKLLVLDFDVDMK
UniProt P24385: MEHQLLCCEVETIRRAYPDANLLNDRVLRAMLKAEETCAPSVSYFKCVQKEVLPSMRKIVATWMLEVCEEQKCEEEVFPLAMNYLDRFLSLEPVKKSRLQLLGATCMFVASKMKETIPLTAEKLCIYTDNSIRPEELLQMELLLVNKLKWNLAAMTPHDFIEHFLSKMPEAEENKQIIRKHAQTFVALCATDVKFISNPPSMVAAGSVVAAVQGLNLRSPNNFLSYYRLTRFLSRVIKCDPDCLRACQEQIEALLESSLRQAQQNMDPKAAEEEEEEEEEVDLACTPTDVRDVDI

The target in assay [2] is T1, F-box and leucine-rich repeat protein 16 (FBXL16) (human (endogenous in Ishikawa)). The assay is described as follows: co-IP; Ishikawa/MPA cells (shRNA-NC or shFBXL16), treated with 100 nM nocodazole for 4 hours, NP-40 lysis buffer; antibodies to PP2A/C, PP2A^B55-α, PP2A/A and FBXL16 incubated with cell extracts at 4°C for 16 hours, protein A/G beads, western blot.

Results are given in words; binding and its absence hold for the method and conditions named. Binding seen in cells or lysates may run through a third protein. Some entries that bind do so weakly or less than the wild type.

Take FBW7 (from UniProt Q969H0 1-707): the binding entry in assay [1] is on record as “no binding”.

In the case of cyclin D1 (from UniProt P24385 1-295), in assay [1], the binding entry was “no binding”.

B1: PP2A^B55α (B55α regulatory subunit of protein phosphatase 2A) (protein, UniProt P63151 1-447)
chain: MAGAGGGNDIQWCFSQVKGAVDDDVAEADIISTVEFNHSGELLATGDKGGRVVIFQQEQENKIQSHSRGEYNVYSTFQSHEPEFDYLKSLEIEEKINKIRWLPQKNAAQFLLSTNDKTIKLWKISERDKRPEGYNLKEEDGRYRDPTTVTTLRVPVFRPMDLMVEASPRRIFANAHTYHINSISINSDYETYLSADDLRINLWHLEITDRSFNIVDIKPANMEELTEVITAAEFHPNSCNTFVYSSSKGTIRLCDMRASALCDRHSKLFEEPEDPSNRSFFSEIISSISDVKFSHSGRYMMTRDYLSVKIWDLNMENRPVETYQVHEYLRSKLCSLYENDCIFDKFECCWNGSDSVVMTGSYNNFFRMFDRNTKRDITLEASRENNKPRTVLKPRKVCASGKRKKDEISVDSLDFNKKILHTAWHPKENIIAVATTNNLYIFQDKVN
For the molecule B1, the binding result in assay [2] was “binds”.
